Results from patent US20230417767A1, “COMPOSITIONS AND METHODS FOR THE DIAGNOSIS AND TREATMENT OF AGE-RELATED MACULAR DEGENERATION” (Georgetown University, priority 2016, published 2023).
At least one structure is not confirmed: it was looked up by name or label, or the drawing left a doubt.

Legend:
Type in all cases: in vivo
APOB = APOB expression in retina of mice fed high fat diet containing compound; details: compound in high fat diet (telmisartan, UPF 0.001%; fenofibrate 0.1%), 11 weeks, FIG. 20
Experimental: (§1) Quantitative Real-Time Polymerase Chain Reaction Analyses. Total RNA was extracted with the RNeasy kit (Qiagen), treated with RNase-free DNase I (Qiagen), and reverse transcribed with oligo-dT using the SuperScript III cDNA synthesis kit (Invitrogen). Quantitative PCR was performed with the QuantiTect SYBR Green PCR Kit (Qiagen). Specific primers for each gene were designed with the PrimerQuest software (Integrated DNA Technologies), and the cDNA sequences of each gene (GenBank) were used to produce 100-250 bp PCR amplicons that span one or more exon/intron boundaries.
(§2) The HET mice described in Example 2 were administered various compounds to determine the effects of these compounds on the development of AMD. In the High Fat Diet (HFD) experiments, 5 wild type (WT) mice, 5 PGC-1α+/−mice, 5 PGC-1α−/−mice at 2 months old with C57BL/6 background were fed with regular diet (RD) or high fat diet for 16 weeks. […]
(§3) To test the effects of telmisartan, fenofibrate and UPF 1069 on mice, 5 wild type (WT) mice, 5 PGC-1α+/−mice, 5 PGC-1α−/−mice at 2 months old were administrated with RD, HFD, or HFD (Testdiet, 5015) containing one of the three compounds. […] 11 weeks after beginning of administration of the compounds, the mice were sacrificed, the body weight was measured, the eyes were enucleated, with the retinas being extracted and processed for RNA isolation. […]

APP = APP expression in retina of mice fed high fat diet containing compound; details: compound in high fat diet (telmisartan, UPF 0.001%; fenofibrate 0.1%), 11 weeks, FIG. 21
Experimental: as §1, §2, §3

APOE = APOE expression in retina of mice fed high fat diet containing compound; details: compound in high fat diet (telmisartan, UPF 0.001%; fenofibrate 0.1%), 11 weeks, FIG. 22
Experimental: as §1, §2, §3

APOJ = APOJ expression in retina of mice fed high fat diet containing compound; details: compound in high fat diet (telmisartan, UPF 0.001%; fenofibrate 0.1%), 11 weeks, FIG. 23
Experimental: as §1, §2, §3

PGC-1α = PGC-1α gene expression in mice fed high fat diet containing compound; details: PGC-1α+/− (HET) mice; compound in high fat diet (telmisartan, UPF 0.001%; fenofibrate 0.1%), 11 weeks; FIG. 24
Experimental: as §1, §2, §3

Question: For CC(C)OC(=O)C(C)(C)Oc1ccc(C(=O)c2ccc(Cl)cc2)cc1 [fenofibrate], which “APOB levels in the retina” value (APOB; PGC-1α+/− (HET) mice) is on record?
Answer: significantly reduce

Question: And the “APOB levels in the retina” value (APOB; WT mice)?
Answer: significantly reduced

Question: And the “APP levels in the retina” value (APP; PGC-1α+/− (HET) mice)?
Answer: unable to decrease

Question: And the “APP levels in the retina” value (APP; WT mice)?
Answer: significant increase

Question: And the “APOE levels in the retina” value (APOE; PGC-1α+/− (HET) mice)?
Answer: significantly reduce

Question: And the “APOE levels in the retina” value (APOE; WT mice)?
Answer: significantly reduce

Question: And the “APOJ expression in the retina” value (APOJ; PGC-1α+/− (HET) mice)?
Answer: significantly reduced

Question: What about the “APOJ levels in the retina” value (APOJ; WT mice) of the same compound?
Answer: significantly increased

Question: What about the PGC-1α expression (PGC-1α) of the same compound?
Answer: significantly Increase
